These results are taken from paper PMC12866778.

Chains of the proteins cited; added tags and fusions are not shown.
UniProt Q9Z127: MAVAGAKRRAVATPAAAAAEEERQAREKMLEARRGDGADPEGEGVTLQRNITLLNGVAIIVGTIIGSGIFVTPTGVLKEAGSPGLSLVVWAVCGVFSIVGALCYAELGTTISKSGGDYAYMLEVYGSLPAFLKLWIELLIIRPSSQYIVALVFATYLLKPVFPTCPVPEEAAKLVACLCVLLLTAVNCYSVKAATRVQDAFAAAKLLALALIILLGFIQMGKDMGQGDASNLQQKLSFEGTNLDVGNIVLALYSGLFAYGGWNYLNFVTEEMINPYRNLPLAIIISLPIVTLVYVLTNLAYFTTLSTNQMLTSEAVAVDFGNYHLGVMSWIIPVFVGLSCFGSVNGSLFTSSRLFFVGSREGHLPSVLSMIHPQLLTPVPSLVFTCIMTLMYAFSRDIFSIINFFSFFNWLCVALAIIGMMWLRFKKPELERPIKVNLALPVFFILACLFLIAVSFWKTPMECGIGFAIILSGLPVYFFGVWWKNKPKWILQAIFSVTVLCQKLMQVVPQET

For the assay, the target named is SLC7A5-FLAG (solute carrier family seven member 5/L-type amino acid transporter 1, FLAG-tagged) (UniProt Q9Z127). Description: affinity purification with mass spectrometry; label-free proteomics of anti-FLAG immunoprecipitates from SLC7A5-FLAG-transfected RAW264.7 cells, anti-FLAG versus anti-IgG, n = 3/group.

Results are given in words; binding and its absence hold for the method and conditions named. Binding seen in cells or lysates may run through a third protein. These calls come from enrichment with a bait or labelling near it, and not all partners need be listed.

B1: endogenous PGAM5 (phosphoglycerate mutase 5) of RAW264.7 cells (protein, UniProt Q8BX10 1-288)
chain: MAFRQALQLAACGLAGGSAAVLFSAVAVGKPRGGGDADTRATEPPAWTGARAGRGVWDTNWDRREPLSLINLKKRNVESGEDELTSRLDHYKAKATRHIFLIRHSQYHVDGSLEKDRTLTPLGREQAELTGLRLASLGLKFNKIVHSSMTRAVETTDIISKHLPGVSRVSTDLLREGAPIEPDPPVSHWKPEAVQYYEDGARIEAAFRNYIHRADARQEEDSYEIFICHANVIRYIVCRALQFPPEGWLRLSLNNGSITHLVIRPNGRVALRTLGDTGFMPPDKITRS
Regarding B1, the binding result is given as “binds”.
